# From PubChem BioAssay AID1347080 (ICCB-Longwood Screening Facility, Harvard Medical School, 2019)
# This is one part of the list.
# Assay: viability loss with induced miR-34 in A549 – imaging, A549 dox-inducible miR-34, nuclei and caspase counts, primary screen (AID 1347080); also: test concentration not given here
# Conditions: A549 miR-34 inducible, Hoechst nuclei count, 48 h; for fold change: measured here: relative caspase fold change +Dox/-Dox
# [1] = measured here: total cells with miR-34 induction, stronger effect = lower value
# [2] = measured here: total cells without miR-34 induction
SMILES,fold change,cell count [1],cell count [2]
CC1=C2[N-][C@@H](C(CC(N)=O)[C@@]2(C)CCC(=O)NCC(C)OP(=O)([O-])OC2C(CO)OC(n3cnc4cc(C)c(C)cc43)C2O)[C@]2(C)N=C(C(C)=C3N=C(C=C4N=C1C(CCC(N)=O)C4(C)C)C(CCC(N)=O)[C@]3(C)CC(N)=O)C(CCC(N)=O)[C@]2(C)CC(N)=O.[C-]#N.[Co+3] (stereo partly drawn),0.732,8380,9530
O=P(O)(O)F,0.713,8580,9260
O=C(O[C@H]1CN2CCC1CC2)C1NCc2ccccc2[C@@H]1c1ccccc1 (stereo partly drawn),0.59,7560,8130
CN(C(=O)Cc1ccc(Cl)c(Cl)c1)[C@@H]1CCCC[C@@H]1N1CCCC1,0.736,10200,9670
O=C(OC1CN2CCC1CC2)c1ccccc1 (stereo not drawn),1.22,8910,9150
C/C1=C2N=C(/C=C3N=C(/C(C)=C4\[N-][C@@](C)([C@@H]5N=C1[C@](C)(CCC(=O)NC[C@@H](C)OP(=O)([O-])O[C@H]1[C@@H](O)[C@@H](n6cnc7cc(C)c(C)cc76)O[C@@H]1CO)[C@H]5CC(N)=O)[C@@](C)(CC(N)=O)[C@@H]4CCC(N)=O)[C@@](C)(CC(N)=O)[C@@H]\3CCC(N)=O)C(C)(C)[C@@H]/2CCC(N)=O.[C-]#N.[Co+3],1.4,9310,11200
CN(C(=O)Cc1ccc(Cl)c(Cl)c1)[C@@H]1CCCC[C@H]1N1CCCC1,0.843,8650,8810
CN(C(=O)Cc1ccc(Cl)c(Cl)c1)[C@@H]1CC[C@]2(CCCO2)C[C@H]1N1CCCC1,1.09,10000,9900
NC(=O)Nc1ccc([As](=O)(O)O)cc1,1.68,8720,10400
CN(C(=O)Cc1ccccc1)[C@@H]1CC[C@]2(CCCO2)C[C@H]1N1CCCC1,1.08,9340,9810
CN(C)CCS,0.816,8690,9510
